Patent CN108822212A
No constants are given. Whether binding was seen depends on the method and setting. Some binding calls cover weakened binding; strength is not graded here.

Amino acid sequences for entries named in this document (tags omitted). A change or cut given only in a name is not applied to a line headed by its entry. Chains listed by the source or under a name are the forms on record and can include a tag or linker.
KIT WT D4-5蛋白 (P10721, form named): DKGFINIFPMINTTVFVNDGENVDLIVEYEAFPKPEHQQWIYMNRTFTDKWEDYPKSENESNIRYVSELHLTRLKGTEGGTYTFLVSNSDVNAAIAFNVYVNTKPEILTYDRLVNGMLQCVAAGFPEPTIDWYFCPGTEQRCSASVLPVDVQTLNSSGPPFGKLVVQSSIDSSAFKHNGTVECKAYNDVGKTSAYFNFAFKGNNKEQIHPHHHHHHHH

Target: KIT WT D4-5蛋白 (human) (UniProt P10721)
Assay: ELISA, D4-5 protein coated, antibody 0.03-66.67 nM

B1: 单克隆抗体3G2 (antibody, V domains shown, not shown: a dimerising Fc or GST)
VH: EVQLQESGPGLVKPSQSLSLTCTVAGYSITSDYAWNWIRQFPGNRLEWVGYISYSGSTSYNPSLKSRISITRDTSQNQFFLQLNSVTTEDTATYYCTRWRYRYTLAMDYWGQGTSVTVSS
VL: DIVLTQSPAITAASLGQKVTITCSASSSISYIHWYQQKSGTSPKPWIYEIYKLASGVPPRFSGSGSGTSYSLTISSMEAEDAAIYYCQQWNYPFTFGSGTKLEIKR
- binding: binds
